Assay results from paper PMC8589837.
These are yes or no findings as the source states them, for the method shown. In cells and extracts the contact can be indirect. Some results given as binding are weak or reduced against the parent protein; the word gives no strength.

Protein sequences, listed by entry. Tags and fused reporters are not part of them.
UniProt Q76MZ3: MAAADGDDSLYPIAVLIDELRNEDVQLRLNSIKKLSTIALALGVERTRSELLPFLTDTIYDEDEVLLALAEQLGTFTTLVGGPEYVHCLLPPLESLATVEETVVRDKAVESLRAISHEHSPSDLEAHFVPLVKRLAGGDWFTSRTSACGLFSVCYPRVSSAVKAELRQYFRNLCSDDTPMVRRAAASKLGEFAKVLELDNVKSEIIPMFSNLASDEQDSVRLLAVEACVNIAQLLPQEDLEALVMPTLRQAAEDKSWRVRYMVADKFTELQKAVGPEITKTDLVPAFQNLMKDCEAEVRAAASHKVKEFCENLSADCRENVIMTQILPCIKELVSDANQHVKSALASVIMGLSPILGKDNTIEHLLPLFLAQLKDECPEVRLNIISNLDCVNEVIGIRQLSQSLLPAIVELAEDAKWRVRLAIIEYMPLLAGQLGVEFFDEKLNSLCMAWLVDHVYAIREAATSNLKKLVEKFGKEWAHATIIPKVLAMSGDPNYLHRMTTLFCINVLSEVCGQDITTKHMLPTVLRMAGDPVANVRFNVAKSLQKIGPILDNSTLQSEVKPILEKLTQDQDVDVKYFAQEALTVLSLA
UniProt Q07832: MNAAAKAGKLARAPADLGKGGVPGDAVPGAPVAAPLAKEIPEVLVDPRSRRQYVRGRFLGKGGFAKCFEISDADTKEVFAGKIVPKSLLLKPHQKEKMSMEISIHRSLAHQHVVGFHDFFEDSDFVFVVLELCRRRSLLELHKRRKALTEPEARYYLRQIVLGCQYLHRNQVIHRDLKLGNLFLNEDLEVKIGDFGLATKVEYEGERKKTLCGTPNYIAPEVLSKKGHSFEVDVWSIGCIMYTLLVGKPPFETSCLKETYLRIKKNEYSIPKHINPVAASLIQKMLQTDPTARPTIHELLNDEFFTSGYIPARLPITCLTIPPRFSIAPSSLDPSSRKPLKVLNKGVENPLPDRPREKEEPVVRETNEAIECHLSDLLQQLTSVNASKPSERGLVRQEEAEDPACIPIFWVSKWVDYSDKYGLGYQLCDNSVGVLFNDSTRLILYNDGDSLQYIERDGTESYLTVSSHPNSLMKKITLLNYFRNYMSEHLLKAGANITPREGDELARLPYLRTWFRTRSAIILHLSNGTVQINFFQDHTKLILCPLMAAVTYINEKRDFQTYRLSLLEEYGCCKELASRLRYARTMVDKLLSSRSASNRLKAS
UniProt E9Q7E2: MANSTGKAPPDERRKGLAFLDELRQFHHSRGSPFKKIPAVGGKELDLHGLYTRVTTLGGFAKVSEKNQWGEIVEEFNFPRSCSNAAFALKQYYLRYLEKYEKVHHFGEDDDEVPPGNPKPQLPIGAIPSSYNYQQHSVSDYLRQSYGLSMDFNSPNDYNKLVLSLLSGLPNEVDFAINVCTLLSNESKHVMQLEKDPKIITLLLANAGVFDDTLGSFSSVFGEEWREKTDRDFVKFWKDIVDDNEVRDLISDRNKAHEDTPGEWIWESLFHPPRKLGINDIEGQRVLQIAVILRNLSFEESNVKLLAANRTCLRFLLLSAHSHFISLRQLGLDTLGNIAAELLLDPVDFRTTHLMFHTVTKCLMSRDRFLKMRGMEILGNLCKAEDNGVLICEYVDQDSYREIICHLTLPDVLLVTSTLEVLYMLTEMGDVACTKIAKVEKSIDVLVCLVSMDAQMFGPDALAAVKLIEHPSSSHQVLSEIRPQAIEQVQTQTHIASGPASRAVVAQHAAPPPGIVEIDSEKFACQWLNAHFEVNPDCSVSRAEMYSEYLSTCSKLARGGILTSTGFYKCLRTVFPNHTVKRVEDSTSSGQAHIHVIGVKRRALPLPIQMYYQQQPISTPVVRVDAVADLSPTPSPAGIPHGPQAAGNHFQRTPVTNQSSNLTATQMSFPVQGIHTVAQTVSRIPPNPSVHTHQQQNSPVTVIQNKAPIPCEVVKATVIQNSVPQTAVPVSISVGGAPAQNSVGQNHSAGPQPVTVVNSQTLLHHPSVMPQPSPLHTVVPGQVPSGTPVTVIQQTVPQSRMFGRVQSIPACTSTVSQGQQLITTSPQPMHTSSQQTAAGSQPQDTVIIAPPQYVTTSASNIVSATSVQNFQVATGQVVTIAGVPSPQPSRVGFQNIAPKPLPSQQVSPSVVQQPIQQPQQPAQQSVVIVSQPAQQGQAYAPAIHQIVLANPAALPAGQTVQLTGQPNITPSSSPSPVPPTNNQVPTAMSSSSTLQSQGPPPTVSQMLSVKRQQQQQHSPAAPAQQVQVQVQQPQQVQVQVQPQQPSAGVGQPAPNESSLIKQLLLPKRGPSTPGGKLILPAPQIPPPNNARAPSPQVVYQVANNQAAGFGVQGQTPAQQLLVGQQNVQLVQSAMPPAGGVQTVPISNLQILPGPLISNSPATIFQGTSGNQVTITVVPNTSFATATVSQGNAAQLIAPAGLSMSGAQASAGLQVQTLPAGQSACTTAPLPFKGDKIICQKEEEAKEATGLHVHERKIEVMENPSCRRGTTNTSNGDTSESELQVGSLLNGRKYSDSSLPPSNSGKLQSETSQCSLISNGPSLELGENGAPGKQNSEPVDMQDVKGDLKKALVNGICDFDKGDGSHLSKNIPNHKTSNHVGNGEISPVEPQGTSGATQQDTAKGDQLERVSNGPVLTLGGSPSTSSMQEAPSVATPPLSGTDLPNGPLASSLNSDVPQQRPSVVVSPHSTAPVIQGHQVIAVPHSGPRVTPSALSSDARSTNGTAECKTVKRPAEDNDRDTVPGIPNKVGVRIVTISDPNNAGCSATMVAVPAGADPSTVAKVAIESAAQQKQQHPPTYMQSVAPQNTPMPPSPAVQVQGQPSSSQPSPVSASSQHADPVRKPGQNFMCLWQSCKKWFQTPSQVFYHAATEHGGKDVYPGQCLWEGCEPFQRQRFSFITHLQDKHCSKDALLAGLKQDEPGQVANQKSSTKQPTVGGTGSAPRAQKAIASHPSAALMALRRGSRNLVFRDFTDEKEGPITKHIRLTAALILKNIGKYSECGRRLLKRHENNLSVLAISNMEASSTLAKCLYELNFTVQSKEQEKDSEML
UniProt Q3TKT4: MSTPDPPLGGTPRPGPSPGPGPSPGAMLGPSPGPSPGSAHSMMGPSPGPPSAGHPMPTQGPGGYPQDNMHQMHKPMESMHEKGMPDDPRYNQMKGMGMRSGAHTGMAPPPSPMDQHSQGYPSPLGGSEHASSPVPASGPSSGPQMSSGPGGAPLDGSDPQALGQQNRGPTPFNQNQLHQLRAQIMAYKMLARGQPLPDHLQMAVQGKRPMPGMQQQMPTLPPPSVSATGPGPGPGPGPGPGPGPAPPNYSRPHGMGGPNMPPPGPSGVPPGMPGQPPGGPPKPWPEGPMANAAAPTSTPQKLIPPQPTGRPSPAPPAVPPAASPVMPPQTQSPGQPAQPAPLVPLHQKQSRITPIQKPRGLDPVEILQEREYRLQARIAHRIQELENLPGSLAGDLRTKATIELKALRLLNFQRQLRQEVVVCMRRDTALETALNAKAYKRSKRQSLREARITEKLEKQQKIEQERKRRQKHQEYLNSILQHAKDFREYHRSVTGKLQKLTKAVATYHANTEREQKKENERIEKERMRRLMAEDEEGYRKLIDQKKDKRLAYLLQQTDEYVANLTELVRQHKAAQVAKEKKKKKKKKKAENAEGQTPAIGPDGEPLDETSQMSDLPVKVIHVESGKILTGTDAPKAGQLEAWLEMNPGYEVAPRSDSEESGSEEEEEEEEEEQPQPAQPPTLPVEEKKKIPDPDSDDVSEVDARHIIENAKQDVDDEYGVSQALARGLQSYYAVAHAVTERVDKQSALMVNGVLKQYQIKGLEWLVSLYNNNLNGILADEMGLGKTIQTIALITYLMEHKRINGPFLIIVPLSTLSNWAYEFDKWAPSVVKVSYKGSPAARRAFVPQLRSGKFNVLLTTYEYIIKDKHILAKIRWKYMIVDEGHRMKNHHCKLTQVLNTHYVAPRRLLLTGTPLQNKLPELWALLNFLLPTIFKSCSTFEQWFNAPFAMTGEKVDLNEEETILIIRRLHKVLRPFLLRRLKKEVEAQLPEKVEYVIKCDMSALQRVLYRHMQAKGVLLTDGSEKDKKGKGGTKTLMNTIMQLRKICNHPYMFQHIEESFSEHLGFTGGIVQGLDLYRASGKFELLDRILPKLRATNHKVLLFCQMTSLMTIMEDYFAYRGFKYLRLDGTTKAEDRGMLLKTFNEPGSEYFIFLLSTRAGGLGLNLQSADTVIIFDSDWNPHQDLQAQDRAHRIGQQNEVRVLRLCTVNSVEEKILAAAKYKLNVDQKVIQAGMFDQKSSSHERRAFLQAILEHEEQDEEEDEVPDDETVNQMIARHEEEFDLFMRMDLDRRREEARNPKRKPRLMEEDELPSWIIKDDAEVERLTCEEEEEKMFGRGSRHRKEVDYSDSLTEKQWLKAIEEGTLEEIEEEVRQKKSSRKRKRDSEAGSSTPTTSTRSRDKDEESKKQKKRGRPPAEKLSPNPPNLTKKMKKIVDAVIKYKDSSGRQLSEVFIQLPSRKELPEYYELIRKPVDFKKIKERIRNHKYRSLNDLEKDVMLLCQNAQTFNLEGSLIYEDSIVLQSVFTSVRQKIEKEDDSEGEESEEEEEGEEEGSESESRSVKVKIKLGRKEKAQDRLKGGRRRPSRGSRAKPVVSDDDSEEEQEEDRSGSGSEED

Legend:
Test in all cases: co-IP; endogenous proteins from mouse spermatocyte lysates (1 mg; Buffer C with 0.1% IGEPAL, diluted in buffer D), treated with universal nuclease, antibody overnight at 4 °C in IP buffer, protein A or G magnetic beads, detection by immunoblot
[1] = molecular target: PPP2R1A (protein phosphatase 2 regulatory subunit A alpha) (mouse (endogenous in spermatocytes)) (UniProt Q76MZ3)
[2] = molecular target: Polo-like kinase1 (PLK1) (mouse (endogenous in spermatocytes)) (UniProt Q07832)
[3] = molecular target: ARID2, a PBAF (Polybromo - Brg1 Associated Factor)-specific subunit (mouse (endogenous in spermatocytes)) (UniProt E9Q7E2)
[4] = molecular target: BRG1, the catalytic subunit of mammalian SWI/SNF chromatin remodeling complex (mouse (endogenous in spermatocytes)) (UniProt Q3TKT4)

binding [1] | binding [2] | binding [3] | binding [4] | Substance
binds | binds |  |  | ARID2, a PBAF (Polybromo - Brg1 Associated Factor)-specific subunit (from UniProt E9Q7E2 1-1828)
binds | binds |  |  | BRG1, the catalytic subunit of mammalian SWI/SNF chromatin remodeling complex (from UniProt Q3TKT4 1-1613)
 |  | binds |  | PPP2R1A (protein phosphatase 2 regulatory subunit A alpha) (from UniProt Q76MZ3 1-589)
 |  | binds | binds | Polo-like kinase1 (PLK1) (from UniProt Q07832 1-603)
